The structures appear in SMILES notation. The list shows only some results of the screen, not a fair sample: it is rich in T/C values a quarter to a half above the control, in often repeated tests (any T/C) and in doses without a T/C. Further doses and runs are listed elsewhere. T/C gives the treated animals as a percentage of the vehicle group. Some doses have a count of surviving animals in place of a T/C: the source holds a T/C of zero for them, seemingly a mark for toxic or unscored doses. Some survivor counts are full or nearly so, which does not show that the dose was tolerated: the source hardly ever lists a survival T/C far under the control, and the zero likely stands for such cases as well. Survivors were counted at the toxicity check, usually on the fifth day, unless a day is given; later deaths do not show. Schedules are NCI's codes, read here as Q, the interval in days (D) or hours (H), X, the number of doses. Counts like (3×) count equal records among those shown. Some doses were run more than once; their values stand side by side, smallest first. Where survival is the endpoint, the PubChem record calls one and a half times the control and up active, and a quarter to a half above the control has no call in these data; cut-offs in other NCI protocols can differ. Some T/C values are followed by the survivors on the day toxicity was checked, most often the fifth; where none is given, no animal had died by that day.

The subject of this assay is AKR/Lw mice, AKR lymphoma ip, median survival T/C. Description: NCI In Vivo Anticancer Drug Screen. Data for tumor model Lymphoma AKR (Transplanted) (intraperitoneal) in AKR/Lw mice. Particulars: T/C endpoint: median survival time, higher T/C = longer survival. As to the method: The antitumor activity of compounds was measured in mice bearing transplantable tumors. Survival or tumor size were measured and the results are expressed as the measurement made in the treated group (T) divided by the measurement made in the vehicle treated control group (C). The tumor model used in this assay is Lymphoma AKR (Transplanted) (intraperitoneal) in AKR/Lw mice

Setting [1] is: dose: 200.0 mg/kg/injection, schedule: Q01DX001 (ip), vehicle: saline.
Where [2] appears, read: dose: 400.0 mg/kg/injection, schedule: Q01DX001 (ip), vehicle: saline.
Where [3] appears, read: dose: 200.0 mg/kg/injection, schedule: Q01DX001 (ip), vehicle: Klucel (hydroxypropylcellulose) (HPC).
Setting [4] is: dose: 400.0 mg/kg/injection, schedule: Q01DX001 (ip), vehicle: Klucel (hydroxypropylcellulose) (HPC).
[5] abbreviates: dose: 25.0 mg/kg/injection, schedule: Q01DX009 (ip), vehicle: saline.
Where [6] appears, read: dose: 40.0 mg/kg/injection, schedule: Q04DX003 (ip), vehicle: Klucel (hydroxypropylcellulose) (HPC).
The mark [7] stands for this setting: dose: 75.0 mg/kg/injection, schedule: Q04DX003 (ip), vehicle: saline.
The mark [8] stands for this setting: dose: 200.0 mg/kg/injection, schedule: Q04DX003 (ip), vehicle: Klucel (hydroxypropylcellulose) (HPC).

Regarding `CCCN(CCC)CC(C)=O`, where the note is “dose: 25.0 mg/kg/injection, schedule: Q01DX001 (ip), vehicle: saline”, the T/C was 126 % of control. Also, the survivor count is recorded as 5 of 10 under setting [1] and 0 of 10 under setting [2].
Regarding `COc1cc2c(cc1OC)C13CCN4CC5=CCOC6CC(=O)N2C1C6C5CC43` (stereo not drawn) (tested in a mixture with another compound), the survivor count was 8 of 10 under setting [3] and 3 of 10 under setting [4].
Consider `Cc1c2ccncc2c(C)c2c1[nH]c1ccccc12`, for which the T/C was 93 [7 of 10 alive], 102, 108, 126 % of control (dose: 2.5 mg/kg/injection, schedule: Q01DX009 (ip), vehicle: Klucel (hydroxypropylcellulose) (HPC)); 141 % of control (dose: 2.5 mg/kg/injection, schedule: Q01DX009 (ip), vehicle: saline); 100 [9 of 10 alive], 113, 123, 126 % of control (dose: 5.0 mg/kg/injection, schedule: Q01DX009 (ip), vehicle: Klucel (hydroxypropylcellulose) (HPC)); 135 % of control (dose: 6.0 mg/kg/injection, schedule: Q01DX009 (ip), vehicle: saline, evaluated on day 45); 126 % of control (dose: 6.0 mg/kg/injection, schedule: Q01DX009 (ip), vehicle: saline, evaluated on day 60); 108, 113 [9 of 10 alive], 118, 147 % of control (dose: 10.0 mg/kg/injection, schedule: Q01DX009 (ip), vehicle: Klucel (hydroxypropylcellulose) (HPC)). For the same compound, the T/C was 129 % of control (dose: 12.0 mg/kg/injection, schedule: Q01DX009 (ip), vehicle: saline); 125 and 145 % of control (dose: 12.5 mg/kg/injection, schedule: Q01DX005 (ip), vehicle: other); 86 [9 of 10 alive] and 98 % of control [9 of 10 alive] under setting [5]; 132 % of control (dose: 37.5 mg/kg/injection, schedule: Q01DX001 (ip), vehicle: saline); 138 % of control (dose: 37.5 mg/kg/injection, schedule: Q04DX003 (ip), vehicle: saline, evaluated on day 45); 88 and 119 % of control [9 of 10 alive] (dose: 37.5 mg/kg/injection, schedule: Q04DX003 (ip), vehicle: saline, evaluated on day 60). In addition, the T/C is 127 % of control under setting [6]; 107, 113 [9 of 10 alive], 116, 122, 133, 134 % of control (dose: 50.0 mg/kg/injection, schedule: Q01DX001 (ip), vehicle: saline); 127 % of control [9 of 10 alive] (dose: 50.0 mg/kg/injection, schedule: Q04DX003 (ip), vehicle: saline); 134 % of control (dose: 75.0 mg/kg/injection, schedule: Q01DX001 (ip), vehicle: saline); 91 and 125 % of control under setting [7]; 118 [9 of 10 alive], 121, 131, 137 [9 of 10 alive], 138 % of control (2×) (dose: 100.0 mg/kg/injection, schedule: Q01DX001 (ip), vehicle: saline). Besides, the T/C under setting [1] is 123 and 153 % of control [9 of 10 alive]. Further, the survivor count by setting is: (dose: 10.0 mg/kg/injection, schedule: Q04DX003 (ip), vehicle: Klucel (hydroxypropylcellulose) (HPC)) 5 of 10; (dose: 20.0 mg/kg/injection, schedule: Q01DX009 (ip), vehicle: Klucel (hydroxypropylcellulose) (HPC)) 10 of 10; under setting [5], 10 of 10; (dose: 35.0 mg/kg/injection, schedule: Q04DX003 (ip), vehicle: Klucel (hydroxypropylcellulose) (HPC)) 10 of 10; (dose: 37.5 mg/kg/injection, schedule: Q04DX003 (ip), vehicle: Klucel (hydroxypropylcellulose) (HPC)) 10 of 10; (dose: 37.5 mg/kg/injection, schedule: Q04DX003 (ip), vehicle: saline) 9 of 10. Also, the survivor count under setting [6] is 4 of 10 and 10 of 10; the survivor count (dose: 45.0 mg/kg/injection, schedule: Q04DX003 (ip), vehicle: Klucel (hydroxypropylcellulose) (HPC)) is recorded as 10 of 10; the survivor count (dose: 50.0 mg/kg/injection, schedule: Q01DX005 (ip), vehicle: other) is 10 of 10; the survivor count (dose: 50.0 mg/kg/injection, schedule: Q01DX009 (ip), vehicle: saline) is 9 of 10 and 10 of 10 (2×); the survivor count (dose: 50.0 mg/kg/injection, schedule: Q04DX003 (ip), vehicle: Klucel (hydroxypropylcellulose) (HPC)) was 10 of 10; the survivor count (dose: 75.0 mg/kg/injection, schedule: Q04DX003 (ip), vehicle: Klucel (hydroxypropylcellulose) (HPC)) was 10 of 10. Further, the survivor count reads like this: under setting [7], 10 of 10 (2×); (dose: 80.0 mg/kg/injection, schedule: Q04DX003 (ip), vehicle: Klucel (hydroxypropylcellulose) (HPC)) 5 of 10; (dose: 100.0 mg/kg/injection, schedule: Q01DX005 (ip), vehicle: other) 10 of 10; (dose: 100.0 mg/kg/injection, schedule: Q01DX005 (ip), vehicle: water) 10 of 10; (dose: 100.0 mg/kg/injection, schedule: Q01DX009 (ip), vehicle: saline) 10 of 10; (dose: 150.0 mg/kg/injection, schedule: Q04DX003 (ip), vehicle: saline) 8 of 10, 9 of 10, 10 of 10. Besides, the survivor count runs as follows: under setting [1], 8 of 10, 9 of 10, 10 of 10; (dose: 200.0 mg/kg/injection, schedule: Q01DX005 (ip), vehicle: water) 10 of 10; under setting [8], 10 of 10; (dose: 200.0 mg/kg/injection, schedule: Q04DX003 (ip), vehicle: saline) 9 of 10; (dose: 200.0 mg/kg/injection, schedule: Q04DX003 (ip), vehicle: water) 10 of 10; (dose: 300.0 mg/kg/injection, schedule: Q04DX003 (ip), vehicle: saline) 6 of 10 and 9 of 10. Besides, the survivor count is 6 of 10 and 9 of 10 under setting [2]; 10 of 10 (dose: 400.0 mg/kg/injection, schedule: Q04DX003 (ip), vehicle: water).
As to `COc1ccc(C2c3cc4c(c(OC)c3CC3OCC(=O)C32)OCO4)cc1OC` (stereo not drawn), the survivor count is given as 9 of 10 (dose: 12.5 mg/kg/injection, schedule: Q01DX009 (ip), vehicle: Klucel (hydroxypropylcellulose) (HPC)); 10 of 10 (dose: 100.0 mg/kg/injection, schedule: Q01DX009 (ip), vehicle: Klucel (hydroxypropylcellulose) (HPC)); 5 of 10 (dose: 200.0 mg/kg/injection, schedule: Q01DX009 (ip), vehicle: Klucel (hydroxypropylcellulose) (HPC)).
On to `CC(=O)CC(=O)c1ccccc1.CC(=O)CC(=O)c1ccccc1.CC(=O)CC(=O)c1ccccc1.[Co]`, for which the survivor count reads like this: (dose: 100.0 mg/kg/injection, schedule: Q01DX001 (ip), vehicle: Klucel (hydroxypropylcellulose) (HPC)) 4 of 10; under setting [3], 2 of 10; under setting [4], 0 of 10.
For `COc1cc2c(c3c1c(=O)c1ccccc1n3C)C=CC(C)(C)O2`, the survivor count is given as 10 of 10 (dose: 125.0 mg/kg/injection, schedule: Q01DX010 (ip), vehicle: Klucel (hydroxypropylcellulose) (HPC)); 9 of 10 (dose: 250.0 mg/kg/injection, schedule: Q01DX010 (ip), vehicle: Klucel (hydroxypropylcellulose) (HPC)); 6 of 10 (dose: 250.0 mg/kg/injection, schedule: Q03HX024 (ip), vehicle: Klucel (hydroxypropylcellulose) (HPC)); 0 of 10 (dose: 500.0 mg/kg/injection, schedule: Q01DX010 (ip), vehicle: Klucel (hydroxypropylcellulose) (HPC)). The T/C reads like this: under setting [8], 125 % of control; (dose: 540.0 mg/kg/injection, schedule: Q04DX003 (ip), vehicle: Klucel (hydroxypropylcellulose) (HPC)) 125 % of control; (dose: 800.0 mg/kg/injection, schedule: Q04DX003 (ip), vehicle: Klucel (hydroxypropylcellulose) (HPC)) 127 % of control [9 of 10 alive].
